In PMC4175184, “Structure and function of cohesin’s Scc3/SA regulatory subunit” (Febs Letters, 2014):
These are yes or no findings as the source states them, for the method shown. Some binding calls cover weakened binding; strength is not graded here.

T1: S. cerevisiae Wapl (S. cerevisiae) (UniProt Q99359)
T1 sequence: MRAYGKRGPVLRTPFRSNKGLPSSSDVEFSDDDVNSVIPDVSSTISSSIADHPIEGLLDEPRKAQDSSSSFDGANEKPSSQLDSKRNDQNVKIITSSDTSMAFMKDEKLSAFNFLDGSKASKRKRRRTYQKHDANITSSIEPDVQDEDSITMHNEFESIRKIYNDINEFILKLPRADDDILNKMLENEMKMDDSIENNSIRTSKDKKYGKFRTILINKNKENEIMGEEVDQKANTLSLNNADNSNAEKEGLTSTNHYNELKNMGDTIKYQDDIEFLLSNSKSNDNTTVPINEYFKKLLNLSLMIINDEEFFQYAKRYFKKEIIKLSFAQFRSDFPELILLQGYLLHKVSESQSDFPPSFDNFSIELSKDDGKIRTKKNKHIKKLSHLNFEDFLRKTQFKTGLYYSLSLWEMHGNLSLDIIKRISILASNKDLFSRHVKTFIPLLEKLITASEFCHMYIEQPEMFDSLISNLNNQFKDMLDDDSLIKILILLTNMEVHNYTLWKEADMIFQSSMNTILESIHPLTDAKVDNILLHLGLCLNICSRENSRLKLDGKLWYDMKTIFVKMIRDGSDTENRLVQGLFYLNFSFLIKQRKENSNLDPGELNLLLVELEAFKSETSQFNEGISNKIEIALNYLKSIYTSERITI


Columns and labels:
[1] = biological target: T1, S. cerevisiae Wapl (S. cerevisiae); experiment: SEC; data not shown; gel filtration as for E202K; both purified
[2] = biological target: T1, S. cerevisiae Wapl (S. cerevisiae); experiment: SEC; 15 μM of each pure protein incubated at 4 °C for 2–3 h in 150 μl TAP buffer, Superdex 200 10/300; fractions by SDS–PAGE and Coomassie staining; both purified

Row | binding [1] | binding [2] | Binder
1 | binds | – | S. cerevisiae Scc3 D189E (protein, UniProt P40541 1-1150) MTAVRRSTRIRTKSQVIEEDYDDEQNTSAQHVESDKITAKTQHEEEEEQDTGESEESSSEDDYEDQDDDDYVDTATAKRKSRKRKPKSASNTSSKRQKKKPTSAQKSAVSHAPAYHRSKKDQDQYLEIAKDFQPTELFDILSTSEDVSIEELLREWLETYSENRDKFLQEFINLLLNCCGSVARVEDHEVHSNESSNETIGEIQLLFQRQKLHEFYLLISKENKKRKNFKMGPLYQNFAEFMTKLLEVANDLQLLYVESDEDDTQIVTGNLVLDLLTWLSSFSVCKIRCFRYISTLTLYLFQDYLTQQAVNLEKNYLAKLSKQLSLEEKKKRPNNKTLEKLESTIAETQGSKVVIDSIIDNIVKLCFVHRYKDVSDLIRSESMLHLSIWIKNYPEYFLKVTFLKYFGWLLSDNSVSVRLQVTKILPHLIIQNHNSKSTDNSAIRQVFERFKTKILEVAIRDVNLDVRIHSIQVLTEASSLGYLDDSEILIISSLMFDEEFDPFKTSSFNKRSKFLSTVAKFLARVIKEKFDEFIKTHEDLPKEVDGLEVGPVVQVGIFIKILNDSLIYHLKDCAEVDSRTKIRMLTQAAEFLSPYISTHLKTICNLLISDTESNELIQKLQNSANNNSDDEDVDDEELDITPLFPIDRNSTILYLNVFHGLCAGANNPKIQTKDSVKEIVLPLFYDLLNAASIESADILCPLLESFITFSLDDWISIGYETELKKITDKTIKAFMDSTIGNSKVDMKYDIFAKFIHHIHHFEKKELQEKFLNQIATLKIHLKKFLQEKMDPNNSRDDYKDLTCSLYELYINKLTILGRDYPIEVDEELLQLFLNNFVSRIPIMFQDFDDSTAQEINFKMLVLLATWNLEKWREIIEKVRDYENSISKDLRSVWKPIAAIIGRLNTLVISLAATNETFENINSLFYLKWSACTSLMDIIVAIKIFELKLPADATTWRYSMSEQFPFYLHDNASKVLLKIFLYLESLFAKQVDVQLERVADEDANLNDLPETGFFENIETEFLLFTVKLKGLMKLNILDERFASRVALNKEKLGPLFKKIVDDTIMENPEPNKKNIQKAKSNQTQREKAPLQPNSERETDHANTENNDPDIPMTIDLEPIEESSQNNSELAPIEEHPTVVDAIDNSDEITQD
2 | binds | – | S. cerevisiae Scc3 R996S (protein, UniProt P40541 1-1150) MTAVRRSTRIRTKSQVIEEDYDDEQNTSAQHVESDKITAKTQHEEEEEQDTGESEESSSEDDYEDQDDDDYVDTATAKRKSRKRKPKSASNTSSKRQKKKPTSAQKSAVSHAPAYHRSKKDQDQYLEIAKDFQPTELFDILSTSEDVSIEELLREWLETYSENRDKFLQEFINLLLNCCGSVARVEDHDVHSNESSNETIGEIQLLFQRQKLHEFYLLISKENKKRKNFKMGPLYQNFAEFMTKLLEVANDLQLLYVESDEDDTQIVTGNLVLDLLTWLSSFSVCKIRCFRYISTLTLYLFQDYLTQQAVNLEKNYLAKLSKQLSLEEKKKRPNNKTLEKLESTIAETQGSKVVIDSIIDNIVKLCFVHRYKDVSDLIRSESMLHLSIWIKNYPEYFLKVTFLKYFGWLLSDNSVSVRLQVTKILPHLIIQNHNSKSTDNSAIRQVFERFKTKILEVAIRDVNLDVRIHSIQVLTEASSLGYLDDSEILIISSLMFDEEFDPFKTSSFNKRSKFLSTVAKFLARVIKEKFDEFIKTHEDLPKEVDGLEVGPVVQVGIFIKILNDSLIYHLKDCAEVDSRTKIRMLTQAAEFLSPYISTHLKTICNLLISDTESNELIQKLQNSANNNSDDEDVDDEELDITPLFPIDRNSTILYLNVFHGLCAGANNPKIQTKDSVKEIVLPLFYDLLNAASIESADILCPLLESFITFSLDDWISIGYETELKKITDKTIKAFMDSTIGNSKVDMKYDIFAKFIHHIHHFEKKELQEKFLNQIATLKIHLKKFLQEKMDPNNSRDDYKDLTCSLYELYINKLTILGRDYPIEVDEELLQLFLNNFVSRIPIMFQDFDDSTAQEINFKMLVLLATWNLEKWREIIEKVRDYENSISKDLRSVWKPIAAIIGRLNTLVISLAATNETFENINSLFYLKWSACTSLMDIIVAIKIFELKLPADATTWRYSMSEQFPFYLHDNASKVLLKIFLYLESLFAKQVDVQLESVADEDANLNDLPETGFFENIETEFLLFTVKLKGLMKLNILDERFASRVALNKEKLGPLFKKIVDDTIMENPEPNKKNIQKAKSNQTQREKAPLQPNSERETDHANTENNDPDIPMTIDLEPIEESSQNNSELAPIEEHPTVVDAIDNSDEITQD
3 | binds | – | S. cerevisiae Scc3 R1043L (protein, UniProt P40541 1-1150) MTAVRRSTRIRTKSQVIEEDYDDEQNTSAQHVESDKITAKTQHEEEEEQDTGESEESSSEDDYEDQDDDDYVDTATAKRKSRKRKPKSASNTSSKRQKKKPTSAQKSAVSHAPAYHRSKKDQDQYLEIAKDFQPTELFDILSTSEDVSIEELLREWLETYSENRDKFLQEFINLLLNCCGSVARVEDHDVHSNESSNETIGEIQLLFQRQKLHEFYLLISKENKKRKNFKMGPLYQNFAEFMTKLLEVANDLQLLYVESDEDDTQIVTGNLVLDLLTWLSSFSVCKIRCFRYISTLTLYLFQDYLTQQAVNLEKNYLAKLSKQLSLEEKKKRPNNKTLEKLESTIAETQGSKVVIDSIIDNIVKLCFVHRYKDVSDLIRSESMLHLSIWIKNYPEYFLKVTFLKYFGWLLSDNSVSVRLQVTKILPHLIIQNHNSKSTDNSAIRQVFERFKTKILEVAIRDVNLDVRIHSIQVLTEASSLGYLDDSEILIISSLMFDEEFDPFKTSSFNKRSKFLSTVAKFLARVIKEKFDEFIKTHEDLPKEVDGLEVGPVVQVGIFIKILNDSLIYHLKDCAEVDSRTKIRMLTQAAEFLSPYISTHLKTICNLLISDTESNELIQKLQNSANNNSDDEDVDDEELDITPLFPIDRNSTILYLNVFHGLCAGANNPKIQTKDSVKEIVLPLFYDLLNAASIESADILCPLLESFITFSLDDWISIGYETELKKITDKTIKAFMDSTIGNSKVDMKYDIFAKFIHHIHHFEKKELQEKFLNQIATLKIHLKKFLQEKMDPNNSRDDYKDLTCSLYELYINKLTILGRDYPIEVDEELLQLFLNNFVSRIPIMFQDFDDSTAQEINFKMLVLLATWNLEKWREIIEKVRDYENSISKDLRSVWKPIAAIIGRLNTLVISLAATNETFENINSLFYLKWSACTSLMDIIVAIKIFELKLPADATTWRYSMSEQFPFYLHDNASKVLLKIFLYLESLFAKQVDVQLERVADEDANLNDLPETGFFENIETEFLLFTVKLKGLMKLNILDERFASLVALNKEKLGPLFKKIVDDTIMENPEPNKKNIQKAKSNQTQREKAPLQPNSERETDHANTENNDPDIPMTIDLEPIEESSQNNSELAPIEEHPTVVDAIDNSDEITQD
4 | – | binds | S. cerevisiae Scc3, full-length protein (protein, UniProt P40541 1-1150) MTAVRRSTRIRTKSQVIEEDYDDEQNTSAQHVESDKITAKTQHEEEEEQDTGESEESSSEDDYEDQDDDDYVDTATAKRKSRKRKPKSASNTSSKRQKKKPTSAQKSAVSHAPAYHRSKKDQDQYLEIAKDFQPTELFDILSTSEDVSIEELLREWLETYSENRDKFLQEFINLLLNCCGSVARVEDHDVHSNESSNETIGEIQLLFQRQKLHEFYLLISKENKKRKNFKMGPLYQNFAEFMTKLLEVANDLQLLYVESDEDDTQIVTGNLVLDLLTWLSSFSVCKIRCFRYISTLTLYLFQDYLTQQAVNLEKNYLAKLSKQLSLEEKKKRPNNKTLEKLESTIAETQGSKVVIDSIIDNIVKLCFVHRYKDVSDLIRSESMLHLSIWIKNYPEYFLKVTFLKYFGWLLSDNSVSVRLQVTKILPHLIIQNHNSKSTDNSAIRQVFERFKTKILEVAIRDVNLDVRIHSIQVLTEASSLGYLDDSEILIISSLMFDEEFDPFKTSSFNKRSKFLSTVAKFLARVIKEKFDEFIKTHEDLPKEVDGLEVGPVVQVGIFIKILNDSLIYHLKDCAEVDSRTKIRMLTQAAEFLSPYISTHLKTICNLLISDTESNELIQKLQNSANNNSDDEDVDDEELDITPLFPIDRNSTILYLNVFHGLCAGANNPKIQTKDSVKEIVLPLFYDLLNAASIESADILCPLLESFITFSLDDWISIGYETELKKITDKTIKAFMDSTIGNSKVDMKYDIFAKFIHHIHHFEKKELQEKFLNQIATLKIHLKKFLQEKMDPNNSRDDYKDLTCSLYELYINKLTILGRDYPIEVDEELLQLFLNNFVSRIPIMFQDFDDSTAQEINFKMLVLLATWNLEKWREIIEKVRDYENSISKDLRSVWKPIAAIIGRLNTLVISLAATNETFENINSLFYLKWSACTSLMDIIVAIKIFELKLPADATTWRYSMSEQFPFYLHDNASKVLLKIFLYLESLFAKQVDVQLERVADEDANLNDLPETGFFENIETEFLLFTVKLKGLMKLNILDERFASRVALNKEKLGPLFKKIVDDTIMENPEPNKKNIQKAKSNQTQREKAPLQPNSERETDHANTENNDPDIPMTIDLEPIEESSQNNSELAPIEEHPTVVDAIDNSDEITQD
